# Experimental data as given in patent US20120302624A1.
# No constants are given. Whether binding was seen depends on the method and setting. Binding seen in cells or lysates may run through a third protein. Some results given as binding are weak or reduced against the parent protein; the word gives no strength. Sequences can lack the tags named with a protein.
# Key:
# H2AX [1] = target: H2AX (UniProt P16104); assay: GST pull-down, LC/Mass/Mass
# H2AX [2] = target: H2AX (UniProt P16104); assay: GST-TOPK pull-down from asynchronized and M phase arrest HeLa cells, LC/Mass/Mass
# H2AX [3] = target: H2AX (UniProt P16104); assay: co-immunoprecipitation of Flag-TOPK with M2 beads from transfected cells, immunoblotting
# H2AX [4] = target: H2AX (UniProt P16104); assay: co-immunoprecipitation with M2 beads from transfected H1299 cells (nocodazole M phase arrest against asynchronized), immunoblotting
# H2AX [5] = target: H2AX (UniProt P16104); assay: co-immunoprecipitation from M phase cell lysates
binding (H2AX [1]),binding (H2AX [2]),binding (H2AX [3]),binding (H2AX [4]),binding (H2AX [5]),Binder
binds,binds,–,–,–,"GST-TOPK (enzyme, UniProt Q96KB5 1-322, looked up, not shown: a dimerising Fc or GST) MEGISNFKTPSKLSEKKKSVLCSTPTINIPASPFMQKLGFGTGVNVYLMKRSPRGLSHSPWAVKKINPICNDHYRSVYQKRLMDEAKILKSLHHPNIVGYRAFTEANDGSLCLAMEYGGEKSLNDLIEERYKASQDPFPAAIILKVALNMARGLKYLHQEKKLLHGDIKSSNVVIKGDFETIKICDVGVSLPLDENMTVTDPEACYIGTEPWKPKEAVEENGVITDKADIFAFGLTLWEMMTLSIPHINLSNDDDDEDKTFDESDFDDEAYYAALGTRPPINMEELDESYQKVIELFSVCTNEDPKDRPSAAHIVEALETDV"
–,–,binds,binds,binds,"Flag-TOPK-WT (Flag-tagged wild-type T-lymphokine-activated killer cell-originated protein kinase, expressed from pCMV2-Flag-TOPK (WT)) (enzyme, UniProt Q96KB5 1-322, looked up, not shown: small tags and cut ends) MEGISNFKTPSKLSEKKKSVLCSTPTINIPASPFMQKLGFGTGVNVYLMKRSPRGLSHSPWAVKKINPICNDHYRSVYQKRLMDEAKILKSLHHPNIVGYRAFTEANDGSLCLAMEYGGEKSLNDLIEERYKASQDPFPAAIILKVALNMARGLKYLHQEKKLLHGDIKSSNVVIKGDFETIKICDVGVSLPLDENMTVTDPEACYIGTEPWKPKEAVEENGVITDKADIFAFGLTLWEMMTLSIPHINLSNDDDDEDKTFDESDFDDEAYYAALGTRPPINMEELDESYQKVIELFSVCTNEDPKDRPSAAHIVEALETDV"
